Experimental findings from doi:10.1101/2024.11.11.622870 are described below.

The test concerns the target T1, GFP-FKBP-Rab25 (UniProt P57735).
T1 sequence: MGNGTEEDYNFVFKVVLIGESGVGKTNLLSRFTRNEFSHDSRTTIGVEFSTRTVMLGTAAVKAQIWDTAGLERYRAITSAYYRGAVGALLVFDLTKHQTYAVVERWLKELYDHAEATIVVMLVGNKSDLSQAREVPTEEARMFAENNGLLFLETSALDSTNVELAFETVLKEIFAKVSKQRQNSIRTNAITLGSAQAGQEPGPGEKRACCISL
The experiment in a line: knock-sideways relocalisation.

Results are given in words; binding and its absence hold for the method and conditions named. Binding can be weak; no strength is given. Where a sequence is shown, tags or fusion partners need not be part of it.

On to FMNL1 (from UniProt O95466-2), for which the binding result is reported as “binds weakly”.
